In the supplement of paper PMC10849652:
This is one part of the list.

Protein sequences, listed by entry. Tags and fused reporters are not part of them. Lines headed by an entry give the natural chain unless they say otherwise; changes in a name come on top.
UniProt Q96PM9: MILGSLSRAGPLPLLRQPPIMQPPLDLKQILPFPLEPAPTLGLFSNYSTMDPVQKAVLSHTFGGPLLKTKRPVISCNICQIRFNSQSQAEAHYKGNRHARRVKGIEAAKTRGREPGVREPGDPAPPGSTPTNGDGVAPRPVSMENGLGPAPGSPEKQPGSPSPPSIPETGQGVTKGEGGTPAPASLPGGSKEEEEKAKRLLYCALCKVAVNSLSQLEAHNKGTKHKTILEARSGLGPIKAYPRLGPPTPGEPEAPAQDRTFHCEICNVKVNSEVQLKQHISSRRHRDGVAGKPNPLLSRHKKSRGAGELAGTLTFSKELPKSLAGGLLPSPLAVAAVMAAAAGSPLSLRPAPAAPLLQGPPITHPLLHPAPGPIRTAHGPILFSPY

Molecular target: ZNF385A (UniProt Q96PM9)
Assay: log2 fold change, soluble protein after heating vs DMSO (PISA); higher = thermal stabilisation; K562 cells, 10 uM, 30 min; active = over 0.2 and 3.5 SD of the protein, either way, in both replicates (recomputed)
Method in brief: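 K562 cells at 2×10^6 cells/mL were exposed to 10 μM compound for 30 min, then aliquots were heated for 3 min across 48°C-58°C, pooled, and extracted in PBS containing 0.5% NP-40 at 4°C. The supernatant after 21,000xg for 90 min was taken as soluble protein and measured by TMTpro 16plex LC-MS/MS with channel sums equalised. Thermal stability is reported relative to control samples, with values from duplicates. Fold changes are given on a log2 scale.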

log2 fold change, inactive:
Cc1cccc(CC(=O)N2CCc3c2ccc(-c2cn(C)c4ncnc(N)c24)c3F)n1 -0.11, CCCCN(Cc1ccc(C(=O)NO)cc1)C(=O)Nc1ccccc1 [Nexturastat A] 0, O=C1NC(=O)C(c2cnc3ccccn23)=C1c1cn2c3c(cc(F)cc13)CN(C(=O)N1CCCCC1)CC2 0.164, NC(=O)Nc1cc(-c2cccc(F)c2)sc1C(=O)N[C@H]1CCCNC1 -0.08, CC(C)(O)CC(=O)NCCn1ccc2ncnc(Nc3ccc(Oc4cccc(C(F)(F)F)c4)c(Cl)c3)c21 -0.006, c1cn2cc(-c3ccc4cn[nH]c4c3)nc(Nc3ccc(N4CCOCC4)cc3)c2n1 [entospletinib] 0.033, CS(=O)(=O)c1ccc(-c2cnc(N)c(C(=O)Nc3ccccc3)n2)cc1 -0.02, Cc1cc(Nc2cc(N3CCN(C)CC3)nc(Sc3ccc(NC(=O)C4CC4)cc3)n2)n[nH]1 [tozasertib] -0.022, O=C(CCCCCCC(=O)Nc1ccccc1)NO [vorinostat] -0.102, Cc1ccc(Sc2cncc3sc(C(N)=O)cc23)cc1 -0.053, CS(=O)(=O)CCNCc1ccc(-c2ccc3ncnc(Nc4ccc(OCc5cccc(F)c5)c(Cl)c4)c3c2)o1 [lapatinib] -0.086, CCCS(=O)(=O)Nc1ccc(F)c(C(=O)c2c[nH]c3ncc(Cl)cc23)c1F 0.008, CC[C@@H]1C(=O)N(C)c2cnc(Nc3ccc(C(=O)N[C@H]4CC[C@H](N5CCN(CC6CC6)CC5)CC4)cc3OC)nc2N1C(C)C [volasertib] 0.187, CN(CCOc1ccc(C[C@@H]2SC(=O)NC2=O)cc1)c1ccccn1 (racemic) [rosiglitazone] 0.142, Cn1cncc1[C@@](N)(c1ccc(Cl)cc1)c1ccc2c(c1)c(-c1cccc(Cl)c1)cc(=O)n2C [tipifarnib] 0.07, CC1=C(C(=O)Nc2cc3cn[nH]c3cc2F)C(c2ccc(C(F)(F)F)cc2)CC(=O)N1 (stereo unspecified) 0.005, COc1cc2nc(-c3cc(F)ccc3O)nc(N[C@@H]3CNC[C@H]3C(C)(C)O)c2cc1OC -0.043, C[C@@H]1COCCN1c1cc(C2(S(C)(=O)=O)CC2)nc(-c2cccc3[nH]ccc23)n1 -0.288, CON(C)C(=O)N1N=C(c2cc(F)ccc2F)S[C@@]1(CCCN)c1ccccc1 [filanesib] 0.19, Cc1cc(Nc2cc(CN3CCOCC3)c3nc(C)c(Cc4ccc(Cl)cc4F)n3n2)n[nH]1 [gandotinib] 0.084, Cc1ccc(NC(=O)c2cccc(C(C)(C)C#N)c2)cc1Nc1ccc2ncn(C)c(=O)c2c1 0.125, CS(=O)(=O)N1CCN(Cc2cc3nc(-c4cccc5[nH]ncc45)nc(N4CCOCC4)c3s2)CC1 [pictilisib] 0.193, CCn1c(C(=O)N(C2CC2)C2CC2)cc2c3c(ncn3C)c(Nc3cc(C)n(C)n3)nc21 -0.052, CN1CCC(CNc2ccc3ncc(-c4cccc(OC(F)(F)F)c4)n3n2)CC1 -0.137, Fc1ccc(Cl)cc1-c1nc(Nc2ccncc2)c2nccnc2n1 -0.064, CN1CCN(c2nc(C3=C(c4c[nH]c5ccccc45)C(=O)NC3=O)c3ccccc3n2)CC1 [sotrastaurin] -0.167, CN1CC[C@H](c2c(O)cc(O)c3c(=O)cc(-c4ccccc4Cl)oc23)[C@H](O)C1 [alvocidib] 0.135, Nc1ccccc1NC(=O)c1ccc(CNC(=O)OCc2cccnc2)cc1 [entinostat] 0.038, CC[C@H](C)[C@H](NC(=O)[C@H]([C@@H](C)CC)N(C)C(C)=O)C(=O)N[C@H](C(=O)N[C@@H](CC(C)C)C(=O)[C@@]1(C)CO1)[C@@H](C)O [epoxomicin] -0.006, C[C@H](Nc1ncnc2nc[nH]c12)c1cc2cccc(Cl)c2c(=O)n1-c1ccccc1 [duvelisib] -0.071, CCn1cc(-c2ccnc3[nH]c(-c4cccc(CN(C)C)c4)cc23)c(-c2ccc(NC(=O)N(C)C)cc2)n1 0.151
